PMC5996148
“And” between values parts separate entries of the source, which are not always exact repeats. Identical values can stand only once. The list shows a part of the results. For some of these results: The exact form of the protein is not confirmed.

Amino acid sequences for entries named in this document (tags omitted). A change or cut given only in a name is not applied to a line headed by its entry.
UniProt P20849: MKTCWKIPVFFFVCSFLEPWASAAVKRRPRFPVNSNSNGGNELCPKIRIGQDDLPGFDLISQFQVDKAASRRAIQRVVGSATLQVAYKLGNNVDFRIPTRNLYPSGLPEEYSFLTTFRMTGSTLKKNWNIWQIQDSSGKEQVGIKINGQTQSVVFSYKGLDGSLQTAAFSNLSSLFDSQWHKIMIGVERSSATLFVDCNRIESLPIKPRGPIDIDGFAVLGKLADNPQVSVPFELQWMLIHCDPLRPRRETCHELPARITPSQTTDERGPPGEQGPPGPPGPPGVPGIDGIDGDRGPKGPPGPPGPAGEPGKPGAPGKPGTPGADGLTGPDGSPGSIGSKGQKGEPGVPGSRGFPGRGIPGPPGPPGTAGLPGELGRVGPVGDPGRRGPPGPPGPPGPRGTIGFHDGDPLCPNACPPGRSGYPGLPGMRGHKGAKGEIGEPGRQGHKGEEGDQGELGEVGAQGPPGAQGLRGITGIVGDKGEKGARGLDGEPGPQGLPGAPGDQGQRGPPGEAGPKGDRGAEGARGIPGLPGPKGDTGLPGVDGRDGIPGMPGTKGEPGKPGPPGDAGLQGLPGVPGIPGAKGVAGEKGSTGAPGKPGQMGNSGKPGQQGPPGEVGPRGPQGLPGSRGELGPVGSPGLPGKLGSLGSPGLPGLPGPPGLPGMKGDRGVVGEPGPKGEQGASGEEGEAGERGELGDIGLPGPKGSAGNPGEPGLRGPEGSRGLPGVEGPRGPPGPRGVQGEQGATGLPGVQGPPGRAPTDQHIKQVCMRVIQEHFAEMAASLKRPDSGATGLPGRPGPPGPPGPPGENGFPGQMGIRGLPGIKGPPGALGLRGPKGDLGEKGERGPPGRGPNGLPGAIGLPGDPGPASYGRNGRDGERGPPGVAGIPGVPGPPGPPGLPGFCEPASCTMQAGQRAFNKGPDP

Key:
Experiment in all cases: protein microarray (ProtoArray v5.0), streptavidin-Alexa Fluor 647
Settings in all cases: 3'-biotin; 20 mM Tris (pH 7.5), 5 mM MgCl2, 100 mM KCl, 0.1% Tween-20, A/T-rich and random oligonucleotide blockers; temperature not stated; high values mean tight binding
[1] = test system: COL4A3BP (human)
[2] = test system: COL4A6 (human)
[3] = target: COL9A1 (UniProt P20849)
[4] = test system: COMMD1 (human)
[5] = test system: COMMD10 (human)
[6] = test system: COMMD4 (human)
[7] = test system: COMT (human)
[8] = test system: COMTD1 (human)
[9] = test system: COPB2 (human)
[10] = test system: COPS2 (human)

For “GGGAGGCTGAGGCAGG [G4-1 biotinylated (PQS2)]”, which binding signal [1] is on record?
The binding signal was -0.343 z-score.

What about the binding signal [2] of the same sequence?
Its binding signal is -0.321 z-score and -0.31 z-score.

What about the binding signal [3] of the same sequence?
The binding signal was -0.28 z-score.

What about the binding signal [4] of the same sequence?
The binding signal was -0.32 z-score.

And the binding signal [5]?
Its binding signal is -0.266 z-score.

What about the binding signal [6] of the same sequence?
Its binding signal is -0.282 z-score.

And the binding signal [7]?
The binding signal was -0.329 z-score and -0.337 z-score and -0.242 z-score.

And the binding signal [8]?
Its binding signal is -0.328 z-score.

And the binding signal [9]?
The binding signal was -0.325 z-score.

And the binding signal [10]?
The binding signal was -0.344 z-score.
